In PubChem BioAssay AID743266 (National Center for Advancing Translational Sciences (NCATS), 2014):
Screen size: about 410,000 compounds; about 310 (0.076%) were called active. The shares of active, inactive and inconclusive entries below differ from those in the screen. The call rests on the fitted dose curve; in most records, active means well fitted activation curve with a large enough effect; inconclusive means small, poorly fitted or top-dose-only effect, or another doubt; inactive means no such curve, though single readings can be large or run the other way. Potencies of inconclusive entries are doubtful fits and often do not repeat.

Chains of the proteins cited; added tags and fusions are not shown. Lines headed by an entry give the natural chain unless they say otherwise; changes in a name come on top.
UniProt Q03431: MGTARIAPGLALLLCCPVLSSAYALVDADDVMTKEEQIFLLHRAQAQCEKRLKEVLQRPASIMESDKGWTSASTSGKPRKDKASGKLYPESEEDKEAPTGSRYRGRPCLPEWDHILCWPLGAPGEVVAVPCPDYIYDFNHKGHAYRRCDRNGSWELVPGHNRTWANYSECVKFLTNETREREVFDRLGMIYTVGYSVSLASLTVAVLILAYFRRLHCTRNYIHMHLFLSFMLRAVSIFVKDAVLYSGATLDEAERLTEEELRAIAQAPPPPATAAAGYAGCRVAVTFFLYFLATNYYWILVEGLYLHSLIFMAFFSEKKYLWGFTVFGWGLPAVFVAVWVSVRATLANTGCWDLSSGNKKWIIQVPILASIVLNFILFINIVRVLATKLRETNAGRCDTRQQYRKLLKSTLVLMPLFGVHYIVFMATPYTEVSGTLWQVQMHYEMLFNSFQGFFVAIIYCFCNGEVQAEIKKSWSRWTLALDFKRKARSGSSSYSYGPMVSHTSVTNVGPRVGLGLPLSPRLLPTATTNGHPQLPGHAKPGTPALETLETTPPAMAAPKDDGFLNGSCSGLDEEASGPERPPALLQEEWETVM

biological target: Parathyroid hormone/parathyroid hormone-related peptide receptor (Homo sapiens) (UniProt Q03431); experiment: qHTS for PTHR1 Agonists: Primary Screen; settings: HEK293 GP2 PTHR1 cells, GloSensor cAMP luminescence, 1 h; activation: at 115 µM (top of the series) unless noted; series mostly up to 115 µM; further: nearly all actives have a fitted effect of over 55% in size
Outline: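 HEK-293-derived GP2 cells expressing PTHR1 and a GloSensor cAMP reporter, 3,000/well, plated overnight, given luciferin plus IBMX (each 0.5 mM as added) for 1 h at 37 °C, then compound for 1 h at 37 °C. Luminescence was read after 15 min at room temperature.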
Potency means the concentration at half of the fitted maximal effect.

Compound | activation | Potency
CC1CCN(CCNC(=O)C2CCN(S(=O)(=O)c3cccc4nsnc34)CC2)CC1 | inconclusive: 34.6% [activator] | –
CCOC(=O)c1cc(NC(=O)c2ccc(C)cc2)c(=O)n2c1oc1ccccc12 | – | inconclusive: 126 µM [activator, single point]
CCCNC(=O)C1CCC(Cn2c(=O)c3sccc3n(CC(=O)N(CC)CC)c2=O)CC1 (stereo not given) | – | inconclusive: 112 µM [activator, single point]
COc1ccc(NC(=O)Cn2nnnc2-c2ccccc2F)c(C)c1 | inconclusive: 52.4% [activator] | –
C[C@H](O)[C@@H]1CN2CCc3c([nH]c4ccccc34)[C@@H]2C[C@@H]1N(C)C(=O)Nc1cc(Cl)cc(Cl)c1 | – | inactive
Cc1ccc(S(=O)(=O)N2CC3CCC2C3)cc1 (stereo not given) | – | inconclusive: 3.16 µM [activator, single point]
O=S(=O)(N/N=C\c1ccc(-c2ccccc2Cl)o1)c1ccccc1 | – | inactive
Cc1cc(O)ccc1Nc1nc(-c2sc(N)nc2C)cs1 | – | inconclusive: 14.1 µM [activator, partial curve, poor fit]
Cc1nonc1NC(=O)CSc1nc(C2CCCCC2)nc2ccccc12 | – | inactive
O=C(NCCN1CCOCC1)/C(=C/c1ccc(Cl)cc1)NC(=O)c1ccccc1 | – | inactive
CCc1ccc(CNC(=O)CN2C(=O)CSc3ccc(S(=O)(=O)N4CCOCC4)cc32)cc1 | – | inactive
CC(C)(C)C(C(=O)n1cccc1C#N)c1ccccc1 (stereo not given) | – | inactive
Cc1ccc2sc(N(CCCN(C)C)C(=O)c3ccco3)nc2c1C | – | inconclusive: 100 µM [activator, partial curve, poor fit]
O=C(Nc1cnn(Cc2ccc(F)cc2)c1)C(c1ccccc1)c1ccccc1 | – | inactive
COc1ccccc1C(=O)C1CCCN(C(=O)c2cc(CC(C)C)nc(C)n2)C1 (stereo not given) | – | inconclusive: 141 µM [activator, single point]
O=C(Nc1c(Cl)ccc2nsnc12)c1ccco1 | – | inconclusive: 35.5 µM [activator, single point]
COc1ccc(/C=C/C(=O)OCC(=O)Nc2c(C)cccc2C)cc1 | – | inconclusive: 50.1 µM [activator, partial curve, poor fit]
C=C(C)COc1ccc(-c2n[nH]c(C)c2-c2ccccc2OC)c(O)c1 | inconclusive: -73.6% [activator] [at 57.5 µM] | –
CN(C)c1cccc(CNC(=O)c2csc([C@@H]3C[C@H](O)[C@@H](CO)O3)n2)c1 | – | inconclusive: 39.8 µM [activator, single point]
CC(C)(C)N1CC2(c3ccccc3)CN(C(C)(C)C)CC(c3ccccc3)(C1)C2=O | – | inconclusive: 63.1 µM [activator, single point]
OC1(c2ccc(Br)cc2)CCNCC1 | – | inconclusive: 39.8 µM [activator, single point]
CC(=O)Nc1ccc(S(=O)(=O)NCC(=O)OCC(=O)Nc2sccc2C(N)=O)cc1 | – | inconclusive: 56.2 µM [activator, partial curve, poor fit]

Compound | activation | Potency
CC(=Nc1ccccc1)C1=C(O)C(Cc2ccccc2)NC1=O (stereo not given) | – | inconclusive: 2.51 µM [activator, full curve, poor fit]
CCOC(=O)/C=C1\SCC(=O)N1CC(=O)NC1CCCCC1 | – | inconclusive: 44.7 µM [activator, single point]
CCOC(=O)c1ccc(N2C(=O)C=C(N3CCOCC3)C2=O)cc1 | – | inconclusive: 70.8 µM [activator, partial curve, poor fit]
O=C(CN1C(=O)/C(=C\c2ccccc2Cl)Sc2ccccc21)NCCCN1CCOCC1 | inconclusive: 43% [activator] | –
CCc1c(CN2CCN(c3ccc(F)cc3)CC2)csc1C | – | inactive
COc1ccccc1-c1cc(C(F)(F)F)nc(S(=O)(=O)CCCC(=O)Nc2ccccc2F)n1 | – | inactive
COCCNc1nc2c(S(=O)(=O)c3ccccc3)nnn2c2ccc(Cl)cc12 | – | inconclusive: 141 µM [activator, single point]
C=CCOc1c(CNC2CCCC2)cc(Cl)cc1OC | – | inconclusive: 12.6 µM [activator, full curve, poor fit]
CC1CN(Cc2ccccc2)c2nc3c(c(=O)n(CC(N)=O)c(=O)n3C)n2C1 (stereo not given) | – | inconclusive: 17.8 µM [activator, partial curve]
Cc1ccc(S(=O)(=O)c2nc(S(=O)(=O)c3ccccc3)sc2N2CCN(C)CC2)cc1 | – | inactive
N#CCSc1nnc(-c2ccc(S(=O)(=O)N3CCOCC3)cc2)n1CC1CCCO1 (stereo not given) | – | inconclusive: 4.47 µM [activator, partial curve, poor fit]
O=C(Cn1ccn(-c2ccc(F)c(F)c2)c(=O)c1=O)NCCc1ccccc1 | – | inconclusive: 89.1 µM [activator, partial curve, poor fit]
CCOC(=O)Cc1csc(NC(=O)c2cccc(N3C(=O)CCC3=O)c2)n1 | – | inconclusive: 39.8 µM [activator, single point]
O=C(CSCc1ccc(F)cc1)N1CCN(c2ccc(Cl)cc2)CC1 | – | inactive
CN1CCN(C(=O)CCN2C(=O)/C(=C\c3ccc(Cl)cc3Cl)SC2=S)CC1 | inconclusive: 3.1% [activator] | –
COc1ccc(-n2c(C)cc(C(=O)CN3C(=O)NC4(CCCc5sccc54)C3=O)c2C)cc1 (stereo not given) | – | inactive
CCOc1ccc2nc(SCC(=O)Nc3cccc(S(=O)(=O)NC4=NCCCCC4)c3)[nH]c2c1 | – | inconclusive: 14.1 µM [activator, partial curve, poor fit]
O=C(CCCN1C(=O)/C(=C/c2ccccc2Cl)SC1=S)NNC(=O)c1cccnc1 | – | inconclusive: 5.62 µM [activator, full curve, poor fit]
O=C(COC(=O)c1cccs1)NCCN1C(=O)CSC1=O | inconclusive: 134% [activator] [at 57.5 µM] | –
COC(=O)c1ccc(NC(=O)CNC(=O)C2CCCCC2)c(C)c1 | – | inconclusive: 2.82 µM [activator, single point]
Cc1ccc(CNC(=O)c2ccc(Cn3c(=O)c4ccccc4n(CC(=O)Nc4ccc(C)cc4)c3=O)cc2)cc1 | – | inactive
CCOc1ccc(NS(=O)(=O)c2cccc(C(=O)N3CCN(C/C=C/c4ccccc4)CC3)c2)cc1 | – | inactive

Some of the entries above in a different format:
Compound,activation,Potency
CC(=Nc1ccccc1)C1=C(O)C(Cc2ccccc2)NC1=O (stereo not given),–,"inconclusive: 2.51 µM [activator, full curve, poor fit]"
CCOC(=O)/C=C1\SCC(=O)N1CC(=O)NC1CCCCC1,–,"inconclusive: 44.7 µM [activator, single point]"
COCCNc1nc2c(S(=O)(=O)c3ccccc3)nnn2c2ccc(Cl)cc12,–,"inconclusive: 141 µM [activator, single point]"
CC1CN(Cc2ccccc2)c2nc3c(c(=O)n(CC(N)=O)c(=O)n3C)n2C1 (stereo not given),–,"inconclusive: 17.8 µM [activator, partial curve]"
Cc1ccc(S(=O)(=O)c2nc(S(=O)(=O)c3ccccc3)sc2N2CCN(C)CC2)cc1,–,inactive

Following part:

Compound | activation | Potency
CCN(Cc1ccccc1)C(=O)c1ccc(SC)cc1OC | – | inconclusive: 126 µM [activator, single point]
O=C(NCCCN1CCOCC1)C(=O)N/N=C/c1ccccc1O | – | inconclusive: 141 µM [activator, single point]
CCOc1ccc(C2c3[nH]c4ccccc4c3CCN2C(=O)CSCc2ccc(F)cc2)cc1 (stereo not given) | – | inconclusive: 126 µM [activator, single point]
CC12CCC(C(=O)Nc3ccc(SC(F)F)cc3)(CC1=O)C2(C)C (stereo not given) | inconclusive: 74.5% [activator] [at 57.5 µM] | –
COc1ccccc1N1CCN(C2CCCN(C(=O)c3cc(C)oc3C)C2)CC1 (stereo not given) | – | inconclusive: 5.01 µM [activator, full curve, poor fit]
CC(=O)C1=C(C)OC(N)=C(C#N)C1c1ccncc1 (stereo not given) | – | inconclusive: 15.8 µM [activator, partial curve]
Cc1ccc(F)cc1NC(=O)Cn1c(C)cc(C)c(C#N)c1=O | inconclusive: 30.7% [activator] | –
COc1ccc(N2CCN(Cc3nc4c(c(=O)[nH]c(=O)n4C)n3CC(C)C)CC2)cc1 | – | inconclusive: 112 µM [activator, single point]
O=C(NCc1cccc(Br)c1)c1ccc(NC(=O)N2CCCCc3ccccc32)cc1 | – | inconclusive: 25.1 µM [activator, partial curve, poor fit]
N#Cc1cc(Nc2c(N)nc[nH]c2=O)c([N+](=O)[O-])cc1C#N | – | inconclusive: 50.1 µM [activator, partial curve, poor fit]
CCCCN(C(=O)c1cccc(S(=O)(=O)N(CC)c2ccccc2)c1)c1c(N)n(CCCC)c(=O)[nH]c1=O | inconclusive: -35.6% [activator] | –
O=C(COc1ccccc1)N/N=C/c1ccc2c(c1)OCO2 | – | inconclusive: 89.1 µM [activator, partial curve, poor fit]
CS(=O)(=O)n1nc(-c2cccnc2)nc1NCc1ccccc1 | – | inactive
O=C(Cn1cc(S(=O)(=O)Cc2cccc(Cl)c2)c2ccccc21)Nc1ccccc1Cl | – | inconclusive: 126 µM [activator, single point]
O=C(Cn1cncn1)NCc1cc(F)ccc1F | – | inconclusive: 100 µM [activator, single point]
Cc1ccc(-n2nc(C)c3c(C)cc(=O)n(CC(=O)Nc4cc(Cl)ccc4C)c32)cc1 | inconclusive: -51.8% [activator] | –
CC(C/C=N/NC(=O)COc1cc(Cl)ccc1Cl)c1ccccc1 (stereo not given) | – | inconclusive: 3.98 µM [activator, partial curve]
COc1ccc(CNC(=O)COC(=O)c2c(-c3c(F)cccc3Cl)noc2C)cc1OC | – | inactive
Cc1ccc2cc(C)c3nnc(SCC(=O)Nc4nc5c(s4)CCCC5)n3c2c1C | – | inconclusive: 44.7 µM [activator, single point]
COc1cc(/C=N/NC(=O)CNC(=O)c2ccc3c(c2)OCCO3)ccc1O | inconclusive: 32.9% [activator] [at 57.5 µM] | –
O=C(NCc1cccs1)C1CC(c2ccc(Cl)c(Cl)c2)=NO1 (stereo not given) | – | inconclusive: 141 µM [activator, single point]
